No constants are given. Whether binding was seen depends on the method and setting. In cells and extracts the contact can be indirect. Some results given as binding are weak or reduced against the parent protein; the word gives no strength. Tags and fused reporters may be left off the sequences shown. Blank lines part the entries; values can stand above or below the binder they belong to.
Molecular target: Flag-tagged full-length CHDP-1 (C. elegans) (UniProt P91027)
Experiment: co-IP; HEK293T cells co-transfected with Flag- and Myc-tagged constructs; lysates incubated with anti-FLAG M2 affinity gel beads at 4 °C overnight, washed three times, immunoblot

binding: binds
B1: Flag-tagged full-length CHDP-1 (protein, UniProt P91027 1-338)
chain: MSEEIKKIEEVAEQDKAPKVPTTEPPVDVPAPVTEEAPKVEEAVAEIAAPAAAEGETATAAAAAPEEKKKSGGVARRFTFNKRWGKHRDAEASTPKEPEAPKDPKEDVLGWIAQQIPQAVHKANYQVIDWVQKTAIPEEGERKTIPGKDQATTRNQFIGFFKDGDVLAKLANALEPGAVEVAAAEENADAAAQKEVQKKNIDAFGAWAQKTLGTEAAPVTNEDLLEKGKAGYTAVFQTLWQLGVQAKEKFDKEGFNVDTIVQLANSVVKSGLLTTILGFFRRNRQAAAAVEEPKDETAAAEGAGEAKEEGATGEVADTADEPVAVKQETSAPAAVAAN

binding: binds
B2: CHDP-1 CH domain fragment (AA 121-242) (domain or fragment, UniProt P91027 121-242)
chain: HKANYQVIDWVQKTAIPEEGERKTIPGKDQATTRNQFIGFFKDGDVLAKLANALEPGAVEVAAAEENADAAAQKEVQKKNIDAFGAWAQKTLGTEAAPVTNEDLLEKGKAGYTAVFQTLWQL

Reference: PMC4944944
